Measurements from PubChem BioAssay AID2685 (National Center for Advancing Translational Sciences (NCATS), 2010).
Some of the results follow. Further columns of the screen follow, without active or inactive calls. Compounds called inactive in the main read-out are mostly missing here. Potencies come from curve fits of mixed quality, noted in brackets.

Test: qHTS Assay for Lipid Storage Modulators in Drosophila S3 Cells;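 on cell number change: cells counted by Cell Tracker Red CMTPX staining in the red channel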
Details: BODIPY lipid droplet fluorescence, 18-24 h; for cell number change: measured here: cell count max response, cells fed with added oleic acid
In short: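 Laser-scanning cytometry quantifies lipid droplet accumulation (500–530 nm total intensity; droplet/cell object ratio) in oleic acid-fed (400 uM added) Drosophila S3 cells treated with a concentration series. 20 uM Triacsin C defined 100% inhibition.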

[1] = measured here: lipid fluorescence (Fed channel) AC50, cells fed with added oleic acid
[2] = measured here: cell number channel AC50, cells fed with added oleic acid

| Structure (SMILES) | cell number change [%] | AC50 [1] | AC50 [2] |
| --- | --- | --- | --- |
| CSc1nc2c(cnn2-c2ccc(C)c(C)c2)c(=O)[nH]1 | -1.84 | 0.13 µM [falling, full curve, poor fit] |  |
| CSCC[C@H](NC(=O)Cc1c(C)c2c(cc(C)c3c(C)coc32)oc1=O)C(=O)O | 22.5 | 29.1 µM [rising, single point] |  |
| O=C(N/N=C\c1ccc(Br)o1)C1COc2ccccc2O1 (stereo not given) | 12.3 | 0.366 µM [rising, full curve, poor fit] | 0.116 µM [rising, full curve] |
| O=C1C(C=NCc2ccncc2)=C(O)c2ccccc21 | 20.6 | 6.51 µM [rising, single point] |  |
| Cn1cccc1/C=C1\SC(=S)N(NC(=O)c2ccc(Cl)cc2)C1=O | 3.07 | 2.06 µM [falling, partial curve] |  |
| O=C(CN1C(=O)C2CC=CCC2C1=O)Nc1nnc(C2CC2)s1 (stereo not given) | -21.6 |  | 4.11 µM [falling, full curve, poor fit] |
| COc1cccc(CNC(=O)CCn2ccc3cc(S(=O)(=O)N4CCCC4)ccc32)c1 | -13 |  |  |
| Cc1cc(Br)ccc1NC(=O)CN(C)C(=O)CSC(=S)N1CCCC1 | -11.4 | 0.00461 µM [falling, full curve] |  |
| C(/CCc1ccccc1)=N\Nc1nc2ccccc2[nH]1 | -20.4 |  | 0.411 µM [falling, partial curve, poor fit] |
| O=c1[nH]c2cc3c(cc2cc1CN(CCO)S(=O)(=O)c1ccccc1Cl)OCCO3 | -36.4 |  | 11.6 µM [falling, partial curve] |
| O=C(Nc1ccc(F)cc1)C1CCN(C(=O)c2ccc(F)cc2)CC1 | -0.0107 | 5.8 µM [rising, single point] |  |
| O=C(NC(=S)NCCC1=CCCCC1)c1ccco1 |  |  | 0.146 µM [rising, single point] |
| Cc1c(C(=O)NCc2ccco2)oc2ccc(Br)cc12 | 49.8 |  | 1.16 µM [rising, full curve, poor fit] |
| CC1CC(=O)Nc2ccccc2N1C(=O)CSc1nnnn1C(C)C (stereo not given) | -0.937 |  |  |
| COC(=O)CCC(=O)N1CCCC(N2CCN(c3cccc(C(F)(F)F)c3)CC2)C1 (stereo not given) | 34.1 | 29.1 µM [rising, single point] | 32.6 µM [rising, single point] |
| CC(C)CC(=O)Nc1nc2c(c(=O)[nH]1)CCCC2 | 9.7 |  | 0.651 µM [falling, full curve, poor fit] |
| COc1ccc(NCc2nnc(SCC(=O)Nc3ccc(OC)cc3)n2C)cc1 | 50.4 |  | 14.6 µM [rising, single point] |
| Nc1nc(-c2cccs2)c(NC(=O)c2ccccc2)s1 | 19 |  | 0.116 µM [rising, full curve, poor fit] |
| Cc1ccc(NC(=O)C(c2ccccc2)c2ccccc2)nc1 | 8.03 | 6.51 µM [rising, single point] |  |
| Cc1ccc(S(=O)(=O)NC(=NC2CCCCC2)c2ccc(F)cc2)cc1 | -2.38 |  | 2.06 µM [rising, partial curve, poor fit] |

| Structure (SMILES) | cell number change [%] | AC50 [1] | AC50 [2] |
| --- | --- | --- | --- |
| Cc1cc2oc(=O)cc(CN(C)Cc3cccc(F)c3)c2cc1Cl | 30.4 |  | 32.6 µM [rising, partial curve, poor fit] |
| COc1ccc(NC(=S)N=Nc2c(O)[nH]c3ccccc23)cc1 | 14.8 | 1.03 µM [rising, full curve, poor fit] |  |
| Cc1cc(C)nc(N2CCC(C(=O)Nc3ccc(Oc4ccccc4)cc3)CC2)n1 | -41.4 | 20.6 µM [falling, single point] | 29.1 µM [falling, single point] |
| Cn1ccc(C(=O)OCC(=O)Nc2ccccc2)n1 | -5.24 | 0.103 µM [rising, full curve, poor fit] |  |
| CCOc1cc(/C=C/C(=O)c2ccc3c(c2)OCCO3)ccc1OCC(=O)N(C)C | 1.26 |  |  |
| COc1ccc(C)cc1NC(=O)CCC(=O)Nc1nnc(C2CCCCC2)s1 | 4.48 | 29.1 µM [rising, single point] |  |
| Cn1c(=S)[nH]c2[nH]c(=O)cnc2c1=O | 0.314 | 1.46 µM [falling, partial curve] |  |
| COc1ccc(CNC(=O)CN(C)S(=O)(=O)c2ccccc2)cc1 | -21.9 | 0.461 µM [falling, partial curve, poor fit] | 0.731 µM [falling, single point] |
| O=C(COC(=O)/C=C/c1ccccc1)NCC1CCCO1 (stereo not given) | 35.1 |  |  |
| Nc1nc(NCCc2ccccc2)nc(NCc2ccccc2)c1[N+](=O)[O-] | 4.17 | 6.51 µM [falling, single point] | 0.103 µM [rising, partial curve, poor fit] |
| Cc1cc(C(=O)N2CCCC(N3CCN(c4cccc(C(F)(F)F)c4)CC3)C2)n[nH]1 (stereo not given) | 16.7 | 1.84 µM [rising, partial curve, poor fit] | 1.3 µM [rising, full curve, poor fit] |
| O=C(Nc1ccc(NC(=O)c2ccccc2F)cc1)c1ccccc1F | -26.4 |  | 0.411 µM [falling, full curve, poor fit] |
| COc1ccc(Cl)cc1NC(=O)Nc1ccc(C(=O)N2CCOCC2)cc1 | -21 | 2.06 µM [rising, partial curve] |  |
| CN(CC(=O)Nc1ccccc1Br)C(=O)c1n[nH]c2ccccc12 | 71 |  | 6.51 µM [rising, partial curve] |
| Cc1cc(NC(=O)Cc2ccccc2[N+](=O)[O-])no1 | -8.24 | 29.1 µM [rising, single point] |  |
| CC(C)N(C(=O)COC(=O)[C@H](C)NC(N)=O)c1ccccc1 | 5.11 |  |  |
| Cc1cccc(N=N/C(=C\O)C(=O)c2cccs2)c1 | 15.5 | 0.00411 µM [rising, full curve, poor fit] | 0.58 µM [rising, partial curve, poor fit] |
| O=C(O)C(Cc1ccccc1)N1C(=O)c2ccccc2C1=O (stereo not given) |  | 6.51 µM [rising, single point] | 1.84 µM [rising, partial curve] |
| Cc1ccc(S(=O)(=O)N2CCN(C(=O)COC(=O)c3cc(C)oc3C)CC2)cc1 | 49.1 | 1.84 µM [rising, partial curve] | 10.3 µM [rising, partial curve, poor fit] |
| Cn1cc2cccc([N+](=O)[O-])c2n1 | 5.85 |  |  |

| Structure (SMILES) | cell number change [%] | AC50 [1] | AC50 [2] |
| --- | --- | --- | --- |
| COc1ccc(Nc2nnc(SCC(=O)NC3CC3)s2)cc1 |  | 0.206 µM [rising, full curve, poor fit] |  |
| O=C(CCNC(=O)c1ccc(Cl)cc1)NC1CCCCCC1 | 0.57 | 2.06 µM [falling, partial curve] | 1.64 µM [falling, partial curve] |
| Cc1nc2c(C#N)c[nH]n2c(=O)c1CCO | -17.5 | 0.092 µM [falling, full curve, poor fit] |  |
| COc1ccc(-n2c(=O)[nH]cc(C(=O)Nc3ccccc3)c2=O)cc1 | 3.58 | 2.59 µM [falling, partial curve] |  |
| O=C(CCNS(=O)(=O)c1ccccc1)NCC1CCCCC1 | -95.5 | 3.26 µM [falling, full curve] | 13 µM [falling, partial curve] |
| O=C(c1cccs1)N(Cc1cccc(F)c1)C1CCS(=O)(=O)C1 (stereo not given) | -11.9 | 11.6 µM [falling, partial curve] |  |
| COc1ccccc1N1CCN(CC(=O)c2c[nH]c3ccccc23)CC1 | -61.1 | 9.2 µM [falling, partial curve] | 16.4 µM [falling, partial curve] |
| Oc1ccc(/C=N/N2CCOCC2)c(O)c1O |  | 20.6 µM [rising, single point] |  |
| C=CCNC(=O)COC(=O)c1oc2ccccc2c1CSC1CCCCC1 | -24.7 | 20.6 µM [falling, single point] |  |
| CN(CC(=O)NCc1ccccc1)Cc1ccc(Cl)cc1 | 13.9 | 0.58 µM [rising, single point] |  |
| CC(=O)NS(=O)(=O)c1ccc(NC(=S)NC(=O)C(C)C)cc1 | -83.5 |  | 29.1 µM [falling, single point] |
| Cc1cccc(C(=O)Nc2nnc(S(=O)(=O)N3CCC(C)CC3)s2)c1 | -32.7 |  | 0.13 µM [falling, full curve, poor fit] |
| Cc1ccc(S(=O)(=O)CC(=O)Nc2ccc(S(=O)(=O)Nc3onc(C)c3C)cc2)cc1 | -8.67 | 3.66 µM [falling, full curve] |  |
| Cc1nn(CC2CC2)c(=O)n1-c1ccc(F)cc1 | 16.5 | 14.6 µM [rising, single point] |  |
| O=C(CNC(=O)c1cccs1)NCC(=O)OCc1ccccc1Br | 32.1 | 17.8 µM [rising, single point] | 14.1 µM [rising, single point] |
| Cc1sc2nc(SCC(=O)Nc3cccc(C(=O)O)c3)[nH]c(=O)c2c1C | 9.64 | 16.4 µM [falling, single point] |  |
| O=C1c2ccccc2S(=O)(=O)N1CC(O)COc1ccc(Cl)cc1 (stereo not given) | -0.559 |  |  |
| CC1CN(C(=O)CSc2nc(-c3ccccc3)cs2)CC(C)O1 (stereo not given) | 51.5 | 6.51 µM [rising, single point] |  |
| Cc1ccc(OCC(=O)Nc2ccc(CN3CCOCC3)cc2)cc1 | 1.73 | 1.46 µM [rising, full curve] |  |

Random excerpt: three compounds from above.

| Structure (SMILES) | cell number change [%] | AC50 [1] | AC50 [2] |
| --- | --- | --- | --- |
| O=C(Nc1ccc(NC(=O)c2ccccc2F)cc1)c1ccccc1F | -26.4 |  | 0.411 µM [falling, full curve, poor fit] |
| COc1ccc(Nc2nnc(SCC(=O)NC3CC3)s2)cc1 |  | 0.206 µM [rising, full curve, poor fit] |  |
| Nc1nc(NCCc2ccccc2)nc(NCc2ccccc2)c1[N+](=O)[O-] | 4.17 | 6.51 µM [falling, single point] | 0.103 µM [rising, partial curve, poor fit] |
